Assay results reported in patent publication US20200345863 (published 2020).

Test: general procedure: Fmoc solid-phase peptide synthesis; NovaGEL Rink Amide (0.63 mmol/g); 2-chlorotrityl chloride (1.1 mmol/g); Ramage ChemMatrix ([…]); HATU/DIPEA; bromoacetic acid/diisopropylcarbodiimide (submonomer)
Conditions: for conjugation yield: conjugation step; for isolated mass / isolated yield: whole synthesis; for isolated yield: based on initial resin loading, scale of the general procedure typically 500 mg or 1000 mg resin; for step yield: late stage modification step

Substance	conjugation yield [%]	isolated mass [mg]	isolated yield [%]	step yield [%]
Fmoc-D-Lys(glucuronideMMAE)-PSAR6	38			
Fmoc-D-Lys(glucuronideMMAE)-PSAR12	28			
MAL-Glu(glucuronideMMAE)-CH2—CH2—PSAR6		5.8	14	
MAL-Glu(glucuronideMMAE)-CH2—CH2—PSAR12		4.6	20	
MAL-Glu(glucuronideMMAE)-CH2—CH2—PSAR18		2.4	14	
MAL-Lys(glucuronideMMAE)-PSAR6				52
MAL-Lys(glucuronideMMAE)-PSAR12				51
